Taken from: PubChem BioAssay AID1224826 (NIAID, 2016)
The whole screen tested about 17,000 reagents; shown is a part drawn at random. In the full data, about 1,110 (6.6%) are marked active. 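Active means lowered or raised reporter signal; replicate intensities are raw and not normalised per plate.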 A number with no mark means an inactive call.

Assay: 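Knock-downs that raise or lower Tnf reporter signal after endotoxin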 (primary screen)
System: RAW264.7 G9 macrophages from mouse bearing reporters for p65 (GFP) and the Tnf promoter (mCherry)
Reagents: siRNA pool against mouse genes, 100 nM
Time to read-out: 16 h of LPS stimulation, after 2 days of siRNA transfection
Treatment: bacterial lipopolysaccharide (Salmonella minnesota R595), 10 ng/ml
Measurement: 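Nuclear mCherry signal of the Tnf promoter reporter measured by imaging after background removal, scaled to each plate median and turned into robust z-scores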
Scale: Tnf reporter robust z-score: higher = stronger Tnf promoter reporter signal after LPS; Tnf reporter intensity: higher = stronger Tnf promoter reporter signal
Rule for the call: 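a well counts as active at a score of -1.3 or below (Tlr4 knock-down control median) or above 3 (raised signal); controls and wells holding fewer than 50 cells are excluded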
Meaning of the calls: active = Tnf reporter clearly lowered or raised; inactive = no clear change in Tnf reporter

| gene symbol | Tnf reporter robust z-score | fewer than 50 cells in well | Tnf reporter intensity, replicate 1 | Tnf reporter intensity, replicate 2 |
| --- | --- | --- | --- | --- |
| Zfp33b (zinc finger protein 33B) | 0.56 | enough cells in well | 192 | 70.1 |
| Mr1 (major histocompatibility complex, class I-related) | 0.65 | enough cells in well | 235 | 152 |
| Pcdhgc4 (protocadherin gamma subfamily C, 4) | -0.91 | enough cells in well | 105 | 89.8 |
| Batf2 (basic leucine zipper transcription factor, ATF-like 2) | -0.2 | enough cells in well | 99.6 | 139 |
| Cct3 (chaperonin containing TCP1 subunit 3) | 0.16 | enough cells in well | 276 | 204 |
| Ppp1r9a (protein phosphatase 1, regulatory subunit 9A) | 0.69 | enough cells in well | 319 | 224 |
| Ube4b (ubiquitination factor E4B) | 0.09 | enough cells in well | 244 | 229 |
| Prkra | 1.32 | enough cells in well | 301 | 216 |
| H2-M11 (histocompatibility 2, M region locus 11) | -0.85 | enough cells in well | 213 | 91.4 |
| Gpr15 (G protein-coupled receptor 15) | 0.44 | enough cells in well | 197 | 427 |
| Son (Son DNA binding protein) | -0.51 | enough cells in well | 260 | 154 |
| Serf1 (small EDRK-rich factor 1) | 2.25 | enough cells in well | 145 | 213 |
| Hsd17b3 (hydroxysteroid (17-beta) dehydrogenase 3) | -0.2 | enough cells in well | 237 | 162 |
| Ddx52 (DExD box helicase 52) | -0.55 | enough cells in well | 97.8 | 121 |
| Ccl21a (C-C motif chemokine ligand 21 (serine)) | -0.57 | enough cells in well | 183 | 183 |
| Slu7 (SLU7 splicing factor homolog (S. cerevisiae)) | -0.67 | enough cells in well | 113 | 136 |
| Mdm4 (MDM4 regulator of p53) | -0.74 | enough cells in well | 250 | 111 |
| Gabrr1 (gamma-aminobutyric acid type A receptor subunit rho 1) | 0.4 | enough cells in well | 301 | 258 |
| Cela3b (chymotrypsin-like elastase family, member 3B) | 0.97 | enough cells in well | 225 | 168 |
| Cpe (carboxypeptidase E) | -0.95 | enough cells in well | 180 | 118 |
| Flt3l (FMS-like tyrosine kinase 3 ligand) | -0.23 | enough cells in well | 278 | 180 |
| Pggt1b (protein geranylgeranyltransferase type I, beta subunit) | -0.13 | enough cells in well | 219 | 197 |
| Slc25a23 | -0.27 | enough cells in well | 141 | 44.6 |
| Efcab6 (EF-hand calcium binding domain 6) | – | fewer than 50 cells per well; well left out of calls | 233 | 59.4 |
| Rb1 (RB transcriptional corepressor 1) | -0.5 | enough cells in well | 275 | 158 |
| Zfp369 (zinc finger protein 369) | 0.4 | enough cells in well | 149 | 132 |
| Or52e19b (olfactory receptor family 52 subfamily E member 19B) | – | fewer than 50 cells per well; well left out of calls | 53.2 | 183 |
| Fdxacb1 (ferredoxin-fold anticodon binding domain containing 1) | -0.5 | enough cells in well | 157 | 123 |
| Adck1 (aarF domain containing kinase 1) | 1.6 | enough cells in well | 304 | 301 |
| Emp2 (epithelial membrane protein 2) | 1.97 | enough cells in well | 438 | 210 |
| Cdkn1c (cyclin dependent kinase inhibitor 1C) | 0.29 | enough cells in well | 217 | 172 |
| Cdkn1b (cyclin dependent kinase inhibitor 1B) | 3.78 (active) | enough cells in well | 507 | 307 |
| A530079E22Rik (RIKEN cDNA A530079E22 gene) | 2.01 | enough cells in well | 272 | 274 |
| Fkbp14 (FK506 binding protein 14) | 0.14 | enough cells in well | 141 | 184 |
| Vps26c (VPS26 endosomal protein sorting factor C) | 0.23 | enough cells in well | 224 | 109 |
| Mcptl (mast cell protease-like) | 0.29 | enough cells in well | 175 | 189 |
| Ptp4a2 (protein tyrosine phosphatase 4a2) | 0.04 | enough cells in well | 251 | 193 |
| Exoc6 (exocyst complex component 6) | -0.63 | enough cells in well | 90.3 | 78.2 |
| H1f6 (H1.6 linker histone, cluster member) | 0.52 | enough cells in well | 298 | 187 |
| Prdx3 (peroxiredoxin 3) | 0.08 | enough cells in well | 234 | 213 |
| Cdt1 (chromatin licensing and DNA replication factor 1) | 1.34 | enough cells in well | 184 | 188 |
| Prmt2 (protein arginine N-methyltransferase 2) | -1.24 | enough cells in well | 167 | 84.7 |
| Slc5a4a | – | fewer than 50 cells per well; well left out of calls | 50.7 | 53 |
| Hsd17b8 (hydroxysteroid 17-beta dehydrogenase 8) | -0.53 | enough cells in well | 237 | 111 |
| Gpr132 (G protein-coupled receptor 132) | -0.88 | enough cells in well | 150 | 209 |
| Tyms (thymidylate synthase) | 0.96 | enough cells in well | 271 | 344 |
| Nfkbia | 0.41 | enough cells in well | 279 | 88.7 |
| Arrb1 (arrestin, beta 1) | 0.71 | enough cells in well | 252 | 392 |
| 2310057M21Rik (RIKEN cDNA 2310057M21 gene) | – | fewer than 50 cells per well; well left out of calls | 54.8 | 57.5 |
| 4833439L19Rik (RIKEN cDNA 4833439L19 gene) | – | fewer than 50 cells per well; well left out of calls | 234 | 166 |
| Cd160 (CD160 antigen) | -1.41 (active) | enough cells in well | 158 | 80.9 |
| Tcaf2 (TRPM8 channel-associated factor 2) | -0.85 | enough cells in well | 103 | 198 |
| Cpt1a (carnitine palmitoyltransferase 1a, liver) | -0.45 | enough cells in well | 194 | 178 |
| Snapin (SNAP-associated protein) | – | fewer than 50 cells per well; well left out of calls | 69.2 | 75.1 |
| Chac1 (ChaC, cation transport regulator 1) | 0.74 | enough cells in well | 282 | 98.4 |
| Pdhb (pyruvate dehydrogenase (lipoamide) beta) | 0.59 | enough cells in well | 335 | 182 |
| Fkbp1a (FK506 binding protein 1a) | -0.44 | enough cells in well | 222 | 198 |
| Ugt2a1 (UDP glucuronosyltransferase 2 family, polypeptide A1) | 0.65 | enough cells in well | 130 | 121 |
| Rnaseh1 (ribonuclease H1) | – | fewer than 50 cells per well; well left out of calls | 53.5 | 45.1 |
| Cnn3 (calponin 3, acidic) | -0.32 | enough cells in well | 119 | 196 |
| Msrb2 (methionine sulfoxide reductase B2) | 0.26 | enough cells in well | 282 | 228 |
| Trp53inp2 | 2.93 | enough cells in well | 394 | 188 |
| Stim1 (stromal interaction molecule 1) | -0.73 | enough cells in well | 88.9 | 68.4 |
| Scn11a (sodium channel, voltage-gated, type XI, alpha) | 0.44 | enough cells in well | 308 | 258 |
| Slc26a10 | 0 | enough cells in well | 138 | 213 |
| Baiap2 (brain-specific angiogenesis inhibitor 1-associated protein 2) | -0.11 | enough cells in well | 141 | 154 |
| Apol10a (apolipoprotein L 10A) | -0.32 | enough cells in well | 146 | 135 |
| Vmn1r33 (vomeronasal 1 receptor 33) | -0.77 | enough cells in well | 89.3 | 60.9 |
| St13 (suppression of tumorigenicity 13) | -0.39 | enough cells in well | 225 | 202 |
| Defa20 (defensin, alpha, 20) | – | fewer than 50 cells per well; well left out of calls | 142 | 22.7 |
| Cd74 | -0.73 | enough cells in well | 177 | 144 |
| Or11g25 (olfactory receptor family 11 subfamily G member 25) | -0.64 | enough cells in well | 78.7 | 33.7 |
| Immp1l | 0.17 | enough cells in well | 252 | 88.2 |
| Smco1 (single-pass membrane protein with coiled-coil domains 1) | -0.1 | enough cells in well | 150 | 45.5 |
| Rxrb (retinoid X receptor beta) | -0.98 | enough cells in well | 220 | 128 |

4 entries from above, sorted by “Tnf reporter intensity, replicate 2”, descending:
| gene symbol | Tnf reporter robust z-score | fewer than 50 cells in well | Tnf reporter intensity, replicate 1 | Tnf reporter intensity, replicate 2 |
| --- | --- | --- | --- | --- |
| Gabrr1 (gamma-aminobutyric acid type A receptor subunit rho 1) | 0.4 | enough cells in well | 301 | 258 |
| Cela3b (chymotrypsin-like elastase family, member 3B) | 0.97 | enough cells in well | 225 | 168 |
| Slu7 (SLU7 splicing factor homolog (S. cerevisiae)) | -0.67 | enough cells in well | 113 | 136 |
| Mdm4 (MDM4 regulator of p53) | -0.74 | enough cells in well | 250 | 111 |
